Experimental findings from US20190381086A1, “INHIBITION OF NEDDYLATION USING GLYCYL-tRNA SYNTHETASE INHIBITORS” (The Scripps Research Institute, priority 2015, published 2019) are described below.

The chains behind the UniProt entries cited, without tags or fusion partners. Residues count along the entry.
UniProt Q15843, residues 1-76: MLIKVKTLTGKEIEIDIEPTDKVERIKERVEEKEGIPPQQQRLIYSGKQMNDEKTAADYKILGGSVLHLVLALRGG

The target of this assay is T1, Ubc12.
T1 sequence: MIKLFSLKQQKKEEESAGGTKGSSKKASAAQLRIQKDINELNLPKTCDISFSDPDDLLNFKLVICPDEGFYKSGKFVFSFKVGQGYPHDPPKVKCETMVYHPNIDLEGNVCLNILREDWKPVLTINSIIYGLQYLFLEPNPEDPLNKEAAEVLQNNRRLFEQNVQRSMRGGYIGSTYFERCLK
The assay is described as follows: co-immunoprecipitation with anti-Myc from lysate of HEK293 cells transfected with Myc-NEDD8, blot anti-Ubc12; from a lysate, so the contact may be indirect or through conjugation.

No constants are given. Whether binding was seen depends on the method and setting. In cells and extracts the contact can be indirect. Some entries that bind do so weakly or less than the wild type.

With “Myc-NEDD8 expressed in HEK293 cells (from UniProt Q15843 1-76)”, the binding result is reported as “binds”.
